PubChem BioAssay AID652243 – Drosophila RNAi Screening Center – 2013

Assay: 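Fly genes required for human androgen receptor driven transcription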 (primary screen)
Cells: Drosophila S2R+ cells
Reagent: long dsRNA against Drosophila genes
Time to read-out: 72 h (48 h, then 24 h hormone)
Challenge: synthetic androgen R1881 at 10 nM for 24 h
Measured: 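Firefly light from an androgen-responsive reporter and Renilla control light per well, raw and unnormalised, for each of two replicates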
Scale: firefly reporter light: higher = more light from androgen-responsive reporter; Renilla control light: higher = more constitutive control signal (cell number, transfection)
Active means: 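Across duplicate plates, a knock-down whose log firefly/Renilla ratio shifted a set fold down or up from the GFP/LacZ control mean was a hit; the downward cut appears as both 1.5 and 3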
Meaning of the calls: active = hit: reporter lowered or raised; inactive = no hit
In all, the deposit lists about 24,000 reagents; below is a random part of those that have a named target and a result. Over the whole deposit, 246 (1%) are marked active. 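Plates not normalised; calls are printed but the firefly/Renilla ratio behind them is not deposited; fold cut for lowering reported inconsistently.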 Raw values are not corrected between plates. A plus sign joins genes that one reagent is predicted to hit. Not given: the amount of reagent.

target gene,dsRNA,"firefly reporter light, replicate 1","firefly reporter light, replicate 2","Renilla control light, replicate 1","Renilla control light, replicate 2",Outcome
CG17359,DRSC10265,3.30e5,2.03e5,2.09e6,1.04e6,inactive
CG17359,DRSC24439,8.09e5,7.35e5,5.98e5,6.23e5,inactive
VAChT + ChAT,DRSC13312,93885,1.60e5,2.84e5,3.52e5,inactive
spir,DRSC03619,1.50e5,2.24e5,1.63e6,1.57e6,inactive
spir,DRSC24744,2.44e5,2.52e5,6.45e5,4.78e5,inactive
Ttc30,DRSC02818,5.78e5,8.03e5,1.67e6,1.58e6,inactive
Ttc30,DRSC25846,2.62e5,2.88e5,8.29e5,7.41e5,inactive
CG5174,DRSC06920,6.73e5,7.71e5,7.76e5,6.61e5,inactive
CG5174,DRSC28048,3.95e5,3.62e5,1.88e6,1.56e6,inactive
CG12688 (retired record),DRSC17877,2.53e5,3.41e5,1.52e6,1.50e6,inactive
CG12688 (retired record),DRSC17878,8.95e5,1.11e6,4.06e6,2.24e6,inactive
CG31446,DRSC13111,67718,65504,1.12e5,1.28e5,inactive
Ac78C,DRSC11467,1.23e5,1.15e5,1.64e5,1.27e5,inactive
Ac78C,DRSC11602,1.98e5,1.35e5,1.94e6,2.01e6,inactive
Ac78C,DRSC11619,3.97e5,3.41e5,2.64e6,3.70e6,inactive
Rich,DRSC11607,34613,53542,3.45e5,3.51e5,inactive
Rich,DRSC28514,2.79e5,4.75e5,7.43e5,1.34e6,inactive
CG4763,DRSC04009,1.18e5,1.90e5,2.00e5,2.61e5,inactive
CG4763,DRSC04487,3.02e5,3.08e5,1.79e6,1.34e6,inactive
tst + CG10375,DRSC14237,98620,34490,5.92e5,3.75e5,inactive
CG12498,DRSC18635,2.31e5,3.15e5,3.99e6,3.56e6,inactive
CG31871,DRSC02567,2.64e5,2.15e5,1.87e6,1.78e6,inactive
CG31871,DRSC02571,1.04e5,95415,7.35e5,8.57e5,inactive
CG31871,DRSC26619,2.09e5,2.49e5,7.37e5,7.52e5,inactive
CG13114,DRSC02212,1.35e5,93870,1.60e6,9.13e5,inactive
Rint1,DRSC11010,1.06e6,5.19e5,1.46e6,9.56e5,inactive
Rint1,DRSC27960,7.73e5,4.09e5,2.78e6,1.52e6,inactive
ItgaPS4,DRSC06630,48607,49024,9.00e5,9.00e5,inactive
CG12483,DRSC08278,1.44e5,1.25e5,1.50e6,1.47e6,inactive
Cib2,DRSC04535,3.65e5,2.40e5,2.21e6,1.80e6,inactive
Cib2,DRSC36873,,,,,inactive
cid,DRSC05429,1.32e5,1.95e5,3.88e5,3.66e5,inactive
cid,DRSC07592,1.35e5,1.47e5,3.50e6,3.50e6,inactive
CG7794,DRSC16313,74237,60742,7.81e5,1.25e6,inactive
eIF4G2,DRSC14207,1.16e5,1.48e5,1.11e6,1.29e6,inactive
eIF4G2,DRSC21739,4.27e5,4.46e5,5.10e5,6.17e5,inactive
Ugt317A1,DRSC04470,3.10e5,2.83e5,2.22e6,2.48e6,inactive
spen,DRSC00839,9.00e5,7.40e5,4.37e6,2.42e6,inactive
spen,DRSC37650,5.37e5,4.51e5,1.69e6,1.53e6,inactive
CG5946,DRSC10560,1.47e5,1.60e5,1.49e6,1.55e6,inactive
Pka-C1,DRSC03399,6.25e5,7.62e5,1.69e6,1.98e6,inactive
Pka-C1,DRSC23314,5.10e5,5.24e5,1.53e5,1.59e5,inactive
Pka-C1,DRSC28268,3.12e5,5.08e5,1.03e6,1.64e6,inactive
CG1387,DRSC17904,1.56e5,60364,5.32e5,5.55e5,inactive
CG33169,DRSC11853,1.62e5,1.52e5,1.05e6,1.06e6,inactive
CG33169,DRSC27830,3.00e5,2.85e5,5.47e5,8.19e5,inactive
CG14856,DRSC14980,2.32e5,2.35e5,3.08e6,3.79e6,inactive
CG17754,DRSC18131,67860,96170,5.65e5,5.37e5,inactive
CG10864,DRSC14273,87732,1.86e5,9.13e5,1.89e6,inactive
CG9757,DRSC16557,2.74e5,2.04e5,3.89e6,3.46e6,inactive
CG9757,DRSC21707,5.58e5,5.50e5,2.37e6,1.97e6,inactive
CG9757,DRSC25621,8.17e5,6.89e5,1.01e6,1.04e6,inactive
CG32639,DRSC18972,3.14e5,2.58e5,3.51e5,2.43e5,inactive
PIG-S,DRSC14643,1.30e5,1.20e5,4.94e5,4.55e5,inactive
PIG-S,DRSC15388,1.90e5,2.73e5,2.14e6,2.14e6,inactive
PIG-S,DRSC15952,1.75e5,1.57e5,1.14e6,1.18e6,inactive
CG3823,DRSC18325,1.63e5,2.17e5,2.61e6,2.17e6,inactive
CG3823,DRSC26025,3.05e5,3.11e5,5.51e5,4.09e5,inactive

Part of the list above, set out differently:
target gene	dsRNA	firefly reporter light, replicate 1	firefly reporter light, replicate 2	Renilla control light, replicate 1	Renilla control light, replicate 2	Outcome
CG31446	DRSC13111	67718	65504	1.12e5	1.28e5	inactive
Ac78C	DRSC11467	1.23e5	1.15e5	1.64e5	1.27e5	inactive
Ac78C	DRSC11602	1.98e5	1.35e5	1.94e6	2.01e6	inactive
Ac78C	DRSC11619	3.97e5	3.41e5	2.64e6	3.70e6	inactive
Rich	DRSC11607	34613	53542	3.45e5	3.51e5	inactive
Rich	DRSC28514	2.79e5	4.75e5	7.43e5	1.34e6	inactive
CG4763	DRSC04009	1.18e5	1.90e5	2.00e5	2.61e5	inactive
